From PubChem BioAssay AID328 (DTP/NCI, 2004) come the findings set out here.

The subject of the experiment is BDF1 mice, P388 leukemia ip, median survival T/C. Put plainly: NCI In Vivo Anticancer Drug Screen. Data for tumor model P388 Leukemia (intraperitoneal) in B6D2F1 (BDF1) mice. Particulars: T/C endpoint: median survival time, higher T/C = longer survival. In short, it runs like this: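 Read-out is survival of treated animals expressed relative to the vehicle group, as a T/C ratio.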

The mark [1] stands for this setting: dose: 50.0 mg/kg/injection, schedule: Q01DX009 (ip), vehicle: saline with Tween-80.
The mark [2] stands for this setting: dose: 100.0 mg/kg/injection, schedule: Q01DX009 (ip), vehicle: saline with Tween-80.
[3] abbreviates: dose: 200.0 mg/kg/injection, schedule: Q01DX009 (ip), vehicle: saline with Tween-80.
[4] abbreviates: dose: 25.0 mg/kg/injection, schedule: Q01DX009 (ip), vehicle: saline with Tween-80.
Where [5] appears, read: dose: 100.0 mg/kg/injection, schedule: Q04DX003 (ip), vehicle: Klucel (hydroxypropylcellulose) (HPC).

The list does not hold the whole screen: it is rich in T/C values a quarter to a half above the control, in often repeated tests (any T/C) and in doses without a T/C. Other doses and runs of a compound stand elsewhere. T/C: endpoint of the treated group in % of that of the vehicle group. Some entries give survivors of the animals treated and no T/C: the source holds a T/C of zero for them, seemingly a mark for toxic or unscored doses. Some doses without a T/C left all or most animals alive at the check, yet need not have been tolerated: the source hardly ever lists a survival T/C far under the control, and the zero likely stands for such cases as well. Survivors were counted at the toxicity check, usually on the fifth day, unless a day is given; later deaths do not show. Schedules are NCI's codes, read here as Q, the interval in days (D) or hours (H), X, the number of doses. Where survival is the endpoint, this PubChem deposit counts one and a half times the control or more as active, and values a quarter to a half above the control carry no call in these data; other NCI protocols may use other cut-offs. Some T/C values carry the count of animals alive at the toxicity check (mostly the fifth day); where none is given, no animal had died by that day. Some entries were tested several times; their values stand side by side, smallest first.

As for `CN(C)C(=S)/N=c1\ss/c(=N/C(=S)N(C)C)n1-c1ccc([N+](=O)[O-])cc1`, the survivor count by setting is: under setting [1], 6 of 6; under setting [2], 6 of 6; under setting [3], 6 of 6.
As for `Cc1ccc(CBr)c2ccccc12`, the T/C is, setting by setting: (dose: 12.5 mg/kg/injection, schedule: Q01DX009 (ip), vehicle: saline with Tween-80) 137 % of control; under setting [4], 130 % of control; under setting [1], 133 % of control. The survivor count is 3 of 6 under setting [1], 3 of 6 under setting [2] and 0 of 6 under setting [3].
For the compound `O=[N+]([O-])c1ccc(/C=N/c2nccs2)o1`, the T/C (dose: 50.0 mg/kg/injection, schedule: Q04DX003 (ip), vehicle: saline) was 132 % of control.
With `CCCCCCCCCCCCCCCCCSCCCCCSCCCCCCCCCCCCCCCCC`, the survivor count (dose: 200.0 mg/kg/injection, schedule: Q01DX001 (ip), vehicle: saline with Tween-80) was 6 of 6.
For the compound `c1ccc2c3ccn4cc5c(cc4c-3nc2c1)CCCC5`, the survivor count by setting is: (dose: 75.0 mg/kg/injection, schedule: Q01DX010 (ip), vehicle: saline) 1 of 6; (dose: 150.0 mg/kg/injection, schedule: Q01DX010 (ip), vehicle: saline) 0 of 6; (dose: 300.0 mg/kg/injection, schedule: Q01DX010 (ip), vehicle: saline) 0 of 6.
`[Ni+2].[SH2+]C([SH2+])=Nc1ccccc1.[SH2+]C([SH2+])=Nc1ccccc1.c1ccc(C[P+](c2ccccc2)(c2ccccc2)c2ccccc2)cc1`: the survivor count (dose: 2.5 mg/kg/injection, schedule: Q01DX009 (ip), vehicle: saline) was 6 of 6; the survivor count (dose: 30.0 mg/kg/injection, schedule: Q01DX009 (ip), vehicle: Klucel (hydroxypropylcellulose) (HPC)) is 2 of 6; the survivor count (dose: 60.0 mg/kg/injection, schedule: Q01DX009 (ip), vehicle: Klucel (hydroxypropylcellulose) (HPC)) is 4 of 6. Besides, the T/C (dose: 6.0 mg/kg/injection, schedule: Q01DX009 (ip), vehicle: saline) was 135 % of control.
For `c1ccc2c(c1)CCc1cc3c(nc1-2)-c1ccccc1CC3`, for the setting “dose: 200.0 mg/kg/injection, schedule: Q04DX003 (ip), vehicle: Klucel (hydroxypropylcellulose) (HPC)”, the T/C was 125 % of control.
For `CC(C)COC(=O)c1cc(O)c(O)c(O)c1`, the survivor count under setting [2] is 6 of 6.
Consider `CC12CCC(O)CC1CCC1C2CCC2(C)C(c3ccc(=O)oc3)C(O)C3OC132` (stereo unspecified), for which the survivor count (dose: 1.87 mg/kg/injection, schedule: Q01DX009 (ip), vehicle: Klucel (hydroxypropylcellulose) (HPC)) is recorded as 4 of 6.
Regarding `O=C(O)C1(C(=O)O)CCC2(CCCCC2)CC1`, the survivor count was 3 of 6 (dose: 100.0 mg/kg/injection, schedule: Q01DX009 (ip), vehicle: water); 2 of 6 (dose: 100.0 mg/kg/injection, schedule: Q04DX003 (ip), vehicle: water); 1 of 6 (dose: 200.0 mg/kg/injection, schedule: Q01DX009 (ip), vehicle: water); 3 of 6 (dose: 200.0 mg/kg/injection, schedule: Q04DX003 (ip), vehicle: water).
As to `C[P+](c1ccc(F)cc1)(c1ccc(F)cc1)c1ccc(F)cc1`, the survivor count under setting [5] is listed as 5 of 6.
Turning to `COc1ccc(/C=C(C(=O)O)/C(=C/c2ccc(OC)c(OC)c2)C(=O)O)cc1OC`, the T/C under setting [5] was 125 % of control.
As to `Nc1ccc2cc3ccc(N)cc3nc2c1`, where the note is “dose: 16.5 mg/kg/injection, schedule: Q01DX009 (ip), vehicle: saline”, the T/C is 140 % of control. Further, where the note is “dose: 37.5 mg/kg/injection, schedule: Q01DX009 (ip), vehicle: saline”, the survivor count is listed as 6 of 6.
Take `COC(=O)C(CC(C)C)NC(=O)C(Cc1ccc(Oc2ccc([N+](=O)[O-])cc2[N+](=O)[O-])cc1)NC=O` (stereo unspecified): the T/C is 102 % of control (dose: 50.0 mg/kg/injection, schedule: Q04DX003 (ip), vehicle: water, evaluated on day 21); 104 and 107 % of control (dose: 50.0 mg/kg/injection, schedule: Q04DX003 (ip), vehicle: water, evaluated on day 30); 104 % of control (dose: 100.0 mg/kg/injection, schedule: Q04DX003 (ip), vehicle: water, evaluated on day 21); 101 and 107 % of control [5 of 6 alive] (dose: 100.0 mg/kg/injection, schedule: Q04DX003 (ip), vehicle: water, evaluated on day 30); 89 % of control (dose: 100.0 mg/kg/injection, schedule: Q04DX003 (ip), vehicle: water, evaluated on day 31); 104 % of control (dose: 200.0 mg/kg/injection, schedule: Q04DX003 (ip), vehicle: water, evaluated on day 21). In addition, the T/C is 103 and 120 % of control (dose: 200.0 mg/kg/injection, schedule: Q04DX003 (ip), vehicle: water, evaluated on day 30); 130 % of control [5 of 6 alive] (dose: 200.0 mg/kg/injection, schedule: Q04DX003 (ip), vehicle: water, evaluated on day 31). In addition, the survivor count (dose: 50.0 mg/kg/injection, schedule: Q04DX003 (ip), vehicle: water) is recorded as 6 of 6.
Take `Nc1cc(Nc2cccc(Cl)c2)nc(N)n1`: the survivor count is on record as 3 of 6 under setting [4] and 3 of 6 under setting [2].
On to `N#Cc1cnc(=S)n(-c2cc(C(F)(F)F)cc(C(F)(F)F)c2)c1N`, for which the survivor count under setting [3] was 0 of 6.
`FC(F)c1nc2nc(Cl)c(Cl)nc2[nH]1`: the T/C under setting [4] is 125 % of control; the T/C (dose: 30.0 mg/kg/injection, schedule: Q01DX009 (ip), vehicle: saline with Tween-80) was 130 % of control; the T/C (dose: 60.0 mg/kg/injection, schedule: Q01DX009 (ip), vehicle: saline with Tween-80) was 130 % of control; the T/C (dose: 75.0 mg/kg/injection, schedule: Q01DX009 (ip), vehicle: saline with Tween-80) is 140 % of control. Moreover, the survivor count was 3 of 6 (dose: 90.0 mg/kg/injection, schedule: Q01DX009 (ip), vehicle: saline with Tween-80) and 0 of 6 (dose: 200.0 mg/kg/injection, schedule: Q04DX003 (ip), vehicle: saline with Tween-80).
On to `CCOC(=O)[C@]1(Br)CC[C@@]1(Br)C(=O)OCC`, for which the T/C by setting is: under setting [1], 130 % of control; under setting [2], 131 and 133 % of control; under setting [3], 132, 137, 148 % of control. Moreover, where the note is “dose: 400.0 mg/kg/injection, schedule: Q01DX009 (ip), vehicle: saline with Tween-80”, the survivor count was 5 of 6.
